Taken from: PubChem BioAssay AID504774 (Drosophila RNAi Screening Center, 2011)
In all, the deposit lists about 23,000 reagents; shown is a random part of those with a known target gene and a result. 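Values are quantile-normalised luminescence on an arbitrary scale; higher means more cells surviving MMS.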 A plus sign joins genes that one reagent is predicted to hit. Further read-outs or replicates are left out here.

- Test: 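Fly genes whose loss alters survival after alkylation damage to DNA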 (primary screen)
- Cell system: Drosophila Kc167 cells
- Reagents: long dsRNA against Drosophila genes, about 0.25 µg dsRNA per well
- Duration: about 6 days: 3 days knock-down, then 3 days with or without MMS
- Conditions: methyl methanesulphonate 0.004% (w/v) for 3 days after knock-down
- Read-out: 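ATP-dependent luminescence as a measure of live cells in MMS-exposed wells, quantile normalised within each plate, with replicate values also given as a mean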
- Reading the numbers: mean viability with MMS: higher = more surviving cells after MMS

mean viability with MMS, by target and reagent
f (GeneID 32718): DRSC19174 1.77e6; DRSC19516 3.26e6; DRSC20331 3.29e6
Rpt4 (GeneID 31567): DRSC18713 2.83e6
PPO2 (GeneID 35910): DRSC07102 3.51e6
B-H2 (GeneID 32723): DRSC19335 2.75e6; DRSC23012 3.41e6
nw (GeneID 3772015): DRSC06749 3.72e6; DRSC06896 3.47e6
CG5569 (GeneID 37783): DRSC04514 3.58e6
CG7551 (GeneID 39280): DRSC10876 3.49e6
CG4853 (GeneID 36974): DRSC06898 3.73e6
CG9459 (GeneID 41213): DRSC16496 3.67e6
ng3 (GeneID 31299): DRSC18804 3.48e6
Kebab (GeneID 48440): DRSC00827 3.62e6
ctp (GeneID 31405): DRSC18758 3.63e6
Drgx (GeneID 5740176): DRSC00278 3.54e6; DRSC00537 3.64e6
CG7365 (GeneID 40200): DRSC10824 3.56e6
Nep5 (GeneID 43255): DRSC16004 3.70e6
sisA (GeneID 32068): DRSC20374 3.43e6
CR18275 (GeneID 8674032): DRSC18151 3.60e6

Targets listed so far whose target name begins with B or b:
mean viability with MMS, by target and reagent
B-H2 (GeneID 32723): DRSC19335 2.75e6; DRSC23012 3.41e6

More records:
mean viability with MMS, by target and reagent
pll (GeneID 43283): DRSC17026 3.67e6
Det (GeneID 42077): DRSC14489 3.83e6
CG8312 (GeneID 41163): DRSC16406 3.55e6
CG31544 (retired record) (GeneID 318792): DRSC12466 3.48e6
CG5334 (GeneID 32402): DRSC19941 3.59e6
CG31928 (GeneID 326175): DRSC00293 3.71e6
Smox (GeneID 31738): DRSC18716 3.63e6
kto (GeneID 44830): DRSC10983 3.51e6
mth (GeneID 38058): DRSC08725 3.52e6
DIP-beta (GeneID 33125): DRSC20461 2.38e6; DRSC20489 4.00e6; DRSC20490 3.80e6; DRSC20505 3.89e6
Slik (GeneID 37893): DRSC04471 3.65e6
CG32095 (GeneID 317849): DRSC22615 3.45e6
Tsp66A + CG42661 + CG42660: DRSC10233 3.66e6
IntS6 (GeneID 31496): DRSC18281 3.38e6
Oseg2 (GeneID 38282): DRSC08343 3.57e6
RhoGAP16F (GeneID 32790): DRSC20025 3.83e6
Coq7 + shf: DRSC18448 3.73e6
CG34217 (GeneID 5740254): DRSC05083 3.37e6
DIP-epsilon (GeneID 7354433): DRSC00932 3.44e6; DRSC02313 3.20e6
CG9837 (GeneID 41057): DRSC16573 3.51e6
bgm (GeneID 44117): DRSC03495 2.81e6
pasi2 (GeneID 41113): DRSC16380 3.44e6
CG7646 (GeneID 40187): DRSC11232 3.49e6
CG12698 (GeneID 32570): DRSC19485 3.52e6
CG17734 (GeneID 41359): DRSC15256 3.58e6
Wnt10 (GeneID 34011): DRSC00990 3.81e6; DRSC02797 3.55e6
CG6497 (GeneID 39924): DRSC10654 3.43e6; DRSC21469 3.53e6
CG11380 (GeneID 31065): DRSC18632 3.12e6; DRSC23223 3.35e6
TfIIEbeta (GeneID 38527): DRSC08701 3.15e6
ND-24 (GeneID 32740): DRSC19960 3.81e6
Ugt302C1 (GeneID 53510): DRSC15353 3.44e6
CG4660 (GeneID 31542): DRSC18378 3.55e6
CG31055 (GeneID 318574): DRSC13832 3.63e6
beat-IIIc (GeneID 35037): DRSC02438 3.47e6; DRSC02949 3.58e6
QIL1 (GeneID 39948): DRSC10888 3.47e6
PolD3 (GeneID 34892): DRSC01961 3.66e6
mxc (GeneID 31869): DRSC17819 3.40e6
Lk (GeneID 47746): DRSC10022 3.69e6
